Laboratory results taken from US20240368668A1, “SUBSTRATES AND BIOMARKERS OF ADAMTS7” (The Broad Institute, Inc., priority 2021, published 2024).

How the values were obtained:
mouse ADAMTS7 [1] = experiment: TMT10 TAILS N-terminomics, SMC2 experiment (process replicates, trypsin/AspN digest); type: cell-based; details: for SMC2 TAILS.total Intensity: SMC2 experiment, total intensity of the N-terminal (TAILS) peptide
Source text: (§1) ADAMTS7 Expression, Cell Culture and Preparation of the Secreted Proteins—Full-length mouse Adamts7 1-1857 (Uniprot Q68SA9, WT or E373Q catalytic mutant) with a carboxyl terminal 3xFLAG tag was used to generate custom adenoviruses as previously described. Adeno-CMV-Luciferase (Ad-Luc) from Vector Biolabs was used as a negative control. Human Coronary Artery Smooth Muscle Cells (HCA-SMC) were obtained from Lonza and expanded in Lonza SmGM-2 media in 15 cm tissue culture plates. Twenty-four hours before media collection, near confluent plates were transduced with 50 MOI adenovirus and switched to Lonza Basal SM media with volumes of 20 ml per 15 cm plate. Expression of the Flag tagged ADAMTS7 was confirmed from the media using western blot and detected using the anti-Flag M2-HRP antibody (Sigma, A8592). Collected media was processed by adding protease inhibitors (1 mM EDTA and 1 mM PMSF) and clarified by 500 g×5 min spin at 4 C to pellet cell debris. Cell media supernatants were then passed through a 0.22 um filter and kept chilled. Processed media was then concentrated 50-100× using 3 kDa Centricon Plus-70 filter unit, spun at 3,500 g×60 min at 4 C. Approximately 10% of the processed, concentrated media was set aside for total secretome proteolytic analysis. The remaining 90% of the processed, concentrated media was buffer exchanged into 50 mM HEPES pH 8.0, 150 mM NaCl (2×50 ml) using the 3 kDa Centricon Plus-70 filter unit and concentrated to >2 mg/ml to serve as input for the TAILS experiment. Secretome and TAILS input samples were stored at −80° C.
(§2) For the first experiment, referred to as SMC1, 120 ml of media from 6×15 cm dishes was pooled from each condition (Luc, WT, EQ) and processed to produce three separate inputs for the TAILS experiment. Luc, WT and EQ inputs from the SMC1 experiment were each divided into triplicate 400 ug samples to generate technical replicate TAILS data. For the second experiment, referred to as SMC2, media was processed separately in triplicate for each condition (Luc1, Luc2, Luc3, WT1, WT2, WT3, EQ1, EQ2, EQ3) using 60 ml of media from 3×15 cm dishes for each process replicate. Inputs from the SMC2 experiment used process replicates of 300 ug each to generate TAILS data. The third experiment used input from cultured Human umbilical vein endothelial cells (HUVEC) from Lifeline Cell Technology grown in VascuLife Media and transduced in Lifeline Basal EC (+bFGF2 10 ng/ml). The HUVEC experiment used the same strategy as the SMC2 experiment, with 40 ml of media from 2×15 cm dishes for each process replicate and used 200 ug each to generate TAILS data. Inputs for process replicate experiments were restricted to the lowest concentration from the 9 parallel samples for SMC2 or HUVEC.
(§3) TMT10 isotopic labeling and negative selection of non-labeled peptides-Sample preparation was performed based on the TAILS protocol from the Overall lab with some modifications. From a single experiment, nine parallel protein samples in 50 mM HEPES pH 8.0, 150 mM NaCl were separately denatured with guanidinium chloride (Sigma, G4505) to reach a final concentration of 2.5M guanidinium chloride and 250 mM HEPES and incubated at 65° C. for 15 min. Reduction was achieved through addition of tris(2-carboxylethyl) phosphine (TCEP) at a final concentration of […] and incubated at 65° C. for 45 min. Alkylation reaction was performed with addition of iodoacetamide (IAA, Sigma, A3221) to a final concentration of 10 mM IAA for 15 min at room temperature in the dark. Following denaturation, reduction and alkylation steps, ten percent of each of the nine parallel protein samples was removed and combined to serve as a pooled reference. Isobaric tags were added to free amine groups using the TMT10plex Isobaric Mass Tagging Kit (ThermoFisher, 90113) with TMT channels randomly assigned to the nine samples and TMT 131 assigned to the pooled reference. […]

mouse ADAMTS7 [2] = experiment: TMT10 TAILS N-terminomics, SMC1 experiment (Ad-mADAMTS7 WT vs EQ vs Luc, technical replicates, trypsin digest); type: cell-based; details: for SMC1 TAILS.total Intensity: TAILS HC Overlap, total intensity of the peptide; for TAILS_SMC_Scaleup_fxns_mATS7i: TAILS N-terminal peptide signal, SMC scale-up fractions, mouse ADAMTS7, label = TAILS_id (gene symbol_StartAA)
Source text: as §1, §2, §3

[3] = total intensity of the N-terminal peptide spectra, SMC rd2 TAILS fractions, AspN/GluC search
[4] = SMC rd2 TAILS, AspGluN search, total spectral intensity of the N-terminal peptide (TAILS_id = gene_StartAA cleavage site)
[5] = SMC rd2 TAILS, AspGluN digest, total MS intensity of the N-terminal peptide at the given StartAA

Substance | ATS7_SMC_rd2_TAILS_frxns_matS7inDB_AspGluN_retry.totalIntensity (mouse ADAMTS7 [1]; [3]) | ATS7_SMC_rd2_TAILS_frxns_matS7inDB_AspGluN_retry.totalIntensity (mouse ADAMTS7 [1]; [4]) | other results
CCDC80_66 (LEEPNLQPLQR; listed as Homo sapiens) | 3.94E+08 | – | SMC2 TAILS.total Intensity (mouse ADAMTS7 [1]): 3.94E+08; SMC1 TAILS.total Intensity (mouse ADAMTS7 [2]): 7.99E+09; TAILS_SMC_Scaleup_fxns_mATS7i (mouse ADAMTS7 [2]): 7.99E+09
COL1A2_80 (QYDGKGVGLGPGPMGLMGPR; listed as Homo sapiens) | 2.08E+07 | – | SMC2 TAILS.total Intensity (mouse ADAMTS7 [1]): 2.08E+07; SMC1 TAILS.total Intensity (mouse ADAMTS7 [2]): 1.24E+09; TAILS_SMC_Scaleup_fxns_mATS7i (mouse ADAMTS7 [2]): 1.24E+09
COL1A2_270 (VGNAGPAGPAGPR; listed as Homo sapiens) | 2.57E+09 | – | SMC2 TAILS.total Intensity (mouse ADAMTS7 [1]): 2.57E+09; SMC1 TAILS.total Intensity (mouse ADAMTS7 [2]): 5.91E+07; TAILS_SMC_Scaleup_fxns_mATS7i (mouse ADAMTS7 [2]): 5.91E+07
COL1A2_305 (LTGAKGAAGLPGVAGAPGLPGPR; listed as Homo sapiens) | 1.16E+09 | – | SMC2 TAILS.total Intensity (mouse ADAMTS7 [1]): 1.16E+09; SMC1 TAILS.total Intensity (mouse ADAMTS7 [2]): 5.24E+07; TAILS_SMC_Scaleup_fxns_mATS7i (mouse ADAMTS7 [2]): 5.24E+07
COL1A2_630 (VGTAGPSGPSGLPGER; listed as Homo sapiens) | 1.32E+08 | – | SMC2 TAILS.total Intensity (mouse ADAMTS7 [1]): 1.32E+08; SMC1 TAILS.total Intensity (mouse ADAMTS7 [2]): 8.62E+06; TAILS_SMC_Scaleup_fxns_mATS7i (mouse ADAMTS7 [2]): 8.62E+06
CTSB 109 (WAFGAVEAIS; listed as Homo sapiens) | 1.80E+07 | – | –
DBN1_434 (APVEPATA; listed as Homo sapiens) | 3.49E+08 | – | –
DIS3L_75 (FPELKGIIFMQTACQAVQHQR; listed as Homo sapiens) | 2.26E+08 | – | –
ECM1_38 (FQEVGYAAPPSPPLSR; listed as Homo sapiens) | 1.82E+09 | – | –
ECM1_44 (AAPPSPPLSR; listed as Homo sapiens) | 1.31E+09 | – | –
EEF1G 23 (QYSGAQVR; listed as Homo sapiens) | 1.67E+08 | – | –
EIF4B_426 (QTGTSTTSSR; listed as Homo sapiens) | 9.39E+08 | – | –
EMSY_943 (QTVVQVLAVK; listed as Homo sapiens) | 7.48E+08 | – | –
FBLN2_665 (FSQVASNTIPLPLPQPNTCK; listed as Homo sapiens) | 7.99E+07 | – | –
FLNA_689 (VNKPAEFTV; listed as Homo sapiens) | 3.19E+09 | – | –
FLNC_2649 (FVGQKNSFTV; listed as Homo sapiens) | 7.42E+07 | – | –
FN1_99 (DKYTGNTYR; listed as Homo sapiens) | 2.24E+10 | – | –
FN1_1693 (LQPTVEYVVSVYAQNPSG; listed as Homo sapiens) | 1.01E+10 | – | –
FOXG1_235 (LNKCFVKVPRHY; listed as Homo sapiens) | – | 3.64E+07 | –
HEG1_51 (GLELQLER; listed as Homo sapiens) | – | 2.73E+08 | –
HEG1_224 (FQTKSGTAS; listed as Homo sapiens) | – | 2.12E+08 | –
KCND1_436 (RLAKSGTTNAFLQYKQNGGLE; listed as Homo sapiens) | – | 3.21E+08 | –
KRT28_2 (SLQFSNGSR; listed as Homo sapiens) | – | 2.34E+08 | –
LASP1_182 (SYGGYKEPAAPVSIQR; listed as Homo sapiens) | – | 1.27E+08 | –
LOXL1_157 (SVSASAFASTYR; listed as Homo sapiens) | – | 9.17E+06 | –

Substance | ATS7_SMC_rd2_TAILS_frxns_matS7inDB_AspGluN_retry.totalIntensity (mouse ADAMTS7 [1]; [3]) | ATS7_SMC_rd2_TAILS_frxns_matS7inDB_AspGluN_retry.totalIntensity (mouse ADAMTS7 [1]; [4]) | other results
LOXL1_218 (AVASAGVIYPYQPR; listed as Homo sapiens) | – | 2.92E+08 | –
LOXL2_45 (HQPQAPANVAKIQLR; listed as Homo sapiens) | – | 6.08E+08 | –
LOX_60 (LGSQYQPQR; listed as Homo sapiens) | – | 3.55E+08 | –
LTBP2_290 (QHVGLSR; listed as Homo sapiens) | – | 9.07E+08 | –
LTBP3_103 (LTGSGFR; listed as Homo sapiens) | – | 3.47E+09 | –
MMP1_100 (FVLTEGNPR; listed as Homo sapiens) | – | 7.48E+07 | –
MMP1_185 (FQPGPGIGG; listed as Homo sapiens) | – | 6.29E+07 | –
NBEA_1892 (LEKVAPLLR; listed as Homo sapiens) | – | 1.60E+08 | –
PAK4_141 (HSEAGGGSG; listed as Homo sapiens) | – | 3.77E+06 | –
PLIN3_75 (VSGAQPILSKL; listed as Homo sapiens) | – | 5.73E+07 | –
POSTN_727 (IITGPEIKYTR; listed as Homo sapiens) | – | 6.22E+09 | –
PTPRF_1859 (MRYEGVVDMFQTVKTLR; listed as Homo sapiens) | – | 1.20E+09 | –
QSOX1_210 (HKGVAVR; listed as Homo sapiens) | – | 7.78E+07 | –
SHC2_267 (VAKDPINQRACHIL; listed as Homo sapiens) | – | – | ATS7_SMC_rd2_TAILS_frxns_matS7inDB_AspGluN_retry.totalIntensity (mouse ADAMTS7 [1]; [5]): 3.39E+07
SRGN 59 (LLPGESNKIPR; listed as Homo sapiens) | – | – | ATS7_SMC_rd2_TAILS_frxns_matS7inDB_AspGluN_retry.totalIntensity (mouse ADAMTS7 [1]; [5]): 2.86E+09
TLN1_1004 (AKASVPTIQ; listed as Homo sapiens) | – | – | ATS7_SMC_rd2_TAILS_frxns_matS7inDB_AspGluN_retry.totalIntensity (mouse ADAMTS7 [1]; [5]): 6.83E+07
TNPO2_744 (VQMVLNNLVEIINRPNTPKTLLE; oxidized methionine, deamidated asparagine; listed as Homo sapiens) | – | – | ATS7_SMC_rd2_TAILS_frxns_matS7inDB_AspGluN_retry.totalIntensity (mouse ADAMTS7 [1]; [5]): 2.81E+08
TNS1_236 (QEGLAGYQR; listed as Homo sapiens) | – | – | ATS7_SMC_rd2_TAILS_frxns_matS7inDB_AspGluN_retry.totalIntensity (mouse ADAMTS7 [1]; [5]): 1.65E+08
TRGC2_86 (HRCIVRHENNK; listed as Homo sapiens) | – | – | ATS7_SMC_rd2_TAILS_frxns_matS7inDB_AspGluN_retry.totalIntensity (mouse ADAMTS7 [1]; [5]): 6.46E+08
TTN_5975 (VKEPPVEFTKPL; listed as Homo sapiens) | – | – | ATS7_SMC_rd2_TAILS_frxns_matS7inDB_AspGluN_retry.totalIntensity (mouse ADAMTS7 [1]; [5]): 4.70E+08
VAT1_42 (AASPPLLR; listed as Homo sapiens) | – | – | ATS7_SMC_rd2_TAILS_frxns_matS7inDB_AspGluN_retry.totalIntensity (mouse ADAMTS7 [1]; [5]): 1.26E+08
VCAN_3367 (FKNSSSAK; listed as Homo sapiens) | – | – | ATS7_SMC_rd2_TAILS_frxns_matS7inDB_AspGluN_retry.totalIntensity (mouse ADAMTS7 [1]; [5]): 3.21E+08
VIM_276 (YESVAAKNLQ; listed as Homo sapiens) | – | – | ATS7_SMC_rd2_TAILS_frxns_matS7inDB_AspGluN_retry.totalIntensity (mouse ADAMTS7 [1]; [5]): 5.15E+08
VIM_322 (QVQSLTCEV; listed as Homo sapiens) | – | – | ATS7_SMC_rd2_TAILS_frxns_matS7inDB_AspGluN_retry.totalIntensity (mouse ADAMTS7 [1]; [5]): 1.12E+09
ZSCAN4_25 (FQQSQGPAVQR; listed as Homo sapiens) | – | – | ATS7_SMC_rd2_TAILS_frxns_matS7inDB_AspGluN_retry.totalIntensity (mouse ADAMTS7 [1]; [5]): 2.40E+08
